{"sequences": {"note": "Amino acid sequences for entries named in this document (tags omitted). A change or cut given only in a name is not applied to a line headed by its entry.", "UniProt P11712, whole entry, looked up": "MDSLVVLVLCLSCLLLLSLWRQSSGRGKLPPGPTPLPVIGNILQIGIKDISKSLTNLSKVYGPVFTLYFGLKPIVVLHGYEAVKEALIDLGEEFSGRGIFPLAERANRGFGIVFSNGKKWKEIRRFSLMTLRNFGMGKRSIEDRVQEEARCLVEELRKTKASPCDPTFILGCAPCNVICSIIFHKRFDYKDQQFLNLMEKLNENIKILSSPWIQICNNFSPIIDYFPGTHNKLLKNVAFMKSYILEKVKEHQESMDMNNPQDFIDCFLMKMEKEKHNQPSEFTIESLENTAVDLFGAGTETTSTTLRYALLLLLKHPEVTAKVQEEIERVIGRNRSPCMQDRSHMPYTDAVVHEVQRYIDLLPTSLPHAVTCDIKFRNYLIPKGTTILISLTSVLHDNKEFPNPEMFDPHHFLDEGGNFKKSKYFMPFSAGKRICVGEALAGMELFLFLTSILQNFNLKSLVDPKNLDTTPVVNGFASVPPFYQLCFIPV", "UniProt P05177, whole entry, looked up": "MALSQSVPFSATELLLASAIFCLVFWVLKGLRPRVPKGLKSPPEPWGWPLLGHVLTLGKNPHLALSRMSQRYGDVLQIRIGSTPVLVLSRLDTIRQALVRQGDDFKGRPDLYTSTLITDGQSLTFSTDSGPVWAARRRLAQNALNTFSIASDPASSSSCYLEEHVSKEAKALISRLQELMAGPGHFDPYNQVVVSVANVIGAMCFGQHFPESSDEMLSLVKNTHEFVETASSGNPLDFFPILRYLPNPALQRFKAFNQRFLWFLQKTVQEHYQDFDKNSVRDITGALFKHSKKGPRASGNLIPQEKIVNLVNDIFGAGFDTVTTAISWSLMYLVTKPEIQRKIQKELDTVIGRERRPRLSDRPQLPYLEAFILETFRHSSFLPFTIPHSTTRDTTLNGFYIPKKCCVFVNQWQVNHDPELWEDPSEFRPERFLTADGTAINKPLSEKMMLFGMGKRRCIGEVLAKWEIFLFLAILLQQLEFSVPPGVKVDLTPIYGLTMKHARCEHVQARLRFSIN", "UniProt Q12809": "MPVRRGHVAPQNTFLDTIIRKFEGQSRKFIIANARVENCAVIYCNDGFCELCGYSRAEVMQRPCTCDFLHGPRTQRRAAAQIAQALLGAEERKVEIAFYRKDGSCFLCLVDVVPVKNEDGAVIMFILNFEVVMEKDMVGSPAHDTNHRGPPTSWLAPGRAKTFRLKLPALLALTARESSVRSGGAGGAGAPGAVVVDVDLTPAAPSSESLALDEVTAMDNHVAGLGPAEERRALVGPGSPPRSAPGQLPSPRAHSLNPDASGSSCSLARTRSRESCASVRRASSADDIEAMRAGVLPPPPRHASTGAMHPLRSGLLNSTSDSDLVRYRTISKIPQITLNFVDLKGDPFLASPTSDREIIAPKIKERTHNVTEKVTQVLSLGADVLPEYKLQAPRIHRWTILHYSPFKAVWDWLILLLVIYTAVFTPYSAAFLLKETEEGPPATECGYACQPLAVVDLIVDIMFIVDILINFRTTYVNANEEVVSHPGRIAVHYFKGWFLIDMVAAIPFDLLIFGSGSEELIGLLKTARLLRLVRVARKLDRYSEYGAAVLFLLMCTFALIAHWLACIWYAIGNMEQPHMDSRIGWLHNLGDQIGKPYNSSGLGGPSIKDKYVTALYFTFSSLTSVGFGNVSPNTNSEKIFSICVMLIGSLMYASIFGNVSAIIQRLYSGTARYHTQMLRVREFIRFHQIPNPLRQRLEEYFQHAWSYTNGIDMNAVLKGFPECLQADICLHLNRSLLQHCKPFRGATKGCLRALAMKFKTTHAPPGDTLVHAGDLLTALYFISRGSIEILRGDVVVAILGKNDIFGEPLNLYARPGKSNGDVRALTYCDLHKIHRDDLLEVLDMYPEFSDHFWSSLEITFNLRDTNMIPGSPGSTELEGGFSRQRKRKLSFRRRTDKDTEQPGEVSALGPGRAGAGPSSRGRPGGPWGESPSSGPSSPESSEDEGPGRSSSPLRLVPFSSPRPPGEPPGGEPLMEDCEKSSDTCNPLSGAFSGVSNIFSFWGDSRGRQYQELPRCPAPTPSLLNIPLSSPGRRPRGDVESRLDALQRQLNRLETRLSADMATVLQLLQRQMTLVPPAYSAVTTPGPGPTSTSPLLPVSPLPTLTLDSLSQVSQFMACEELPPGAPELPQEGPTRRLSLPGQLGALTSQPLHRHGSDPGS", "UniProt P08684, whole entry, looked up": "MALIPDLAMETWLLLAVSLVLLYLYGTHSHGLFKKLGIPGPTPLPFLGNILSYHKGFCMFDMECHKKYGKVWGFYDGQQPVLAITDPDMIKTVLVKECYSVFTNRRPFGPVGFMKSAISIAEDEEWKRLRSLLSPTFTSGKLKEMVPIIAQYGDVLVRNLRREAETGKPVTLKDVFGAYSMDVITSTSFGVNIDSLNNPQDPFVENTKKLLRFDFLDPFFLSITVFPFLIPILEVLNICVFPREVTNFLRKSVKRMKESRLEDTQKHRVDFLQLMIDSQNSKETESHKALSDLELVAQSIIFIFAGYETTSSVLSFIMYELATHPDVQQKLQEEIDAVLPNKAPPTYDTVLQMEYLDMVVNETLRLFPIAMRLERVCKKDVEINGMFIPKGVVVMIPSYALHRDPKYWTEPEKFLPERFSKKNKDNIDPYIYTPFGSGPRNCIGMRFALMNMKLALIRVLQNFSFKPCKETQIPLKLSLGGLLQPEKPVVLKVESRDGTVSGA"}, "source": "PubChem BioAssay (Tox21)", "key": {"[1]": {"biological_target": "Cytochrome P450 2C9 (Homo sapiens) (UniProt P11712)", "experiment": "Cytochrome P450 Family 2 Subfamily C Member 9 (CYP2C9) small molecule antagonists: luciferase reporter qHTS assay (AID 1671198)", "outline": "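P450-Glo proluciferin substrate with CYP2C9 enzyme; 10 min RT preincubation, then NADPH regeneration 1 h at 37C; luciferin detection reagent 20 min RT, luminescence in relative luminescence units.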"}, "[2]": {"biological_target": "Cytochrome P450 1A2 (Homo sapiens) (UniProt P05177)", "experiment": "Cytochrome P450 Family 1 Subfamily A Member 2 (CYP1A2) small molecule antagonists: luciferase reporter qHTS assay (AID 1671199)", "outline": "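Room-temperature CYP1A2 reaction with proluciferin substrate: compounds added from DMSO, 10 min preincubation, NADPH regeneration for 1 h. Luciferin detection reagent then added; luminescence recorded as RLU.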"}, "[3]": {"biological_target": "Voltage-gated inwardly rectifying potassium channel KCNH2 (Homo sapiens) (UniProt Q12809)", "experiment": "Human Ether-a-go-go-Related Gene (hERG) channel small molecule antagonists: fluorescence cell-based qHTS assay (AID 1671200)", "outline": "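Cell line hERG-U2OS; dye FluxOR II, 1 h RT dark; Tl+ stimulus; ex 480/em 540 nm, read each second for 2 min.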"}, "[4]": {"biological_target": "Cytochrome P450 3A4 (Homo sapiens) (UniProt P08684)", "experiment": "Cytochrome P450 Family 3 Subfamily A Member 4 (CYP3A4) small molecule antagonists: luciferase reporter qHTS assay (AID 1671201)", "outline": "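Room-temperature assay throughout: 10 min compound–enzyme/substrate preincubation, 1 h reaction after NADPH regeneration solution, 20 min detection. Luciferin formed from proluciferin substrate is quantified by luminescence.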"}}, "note": "Several values for one entry are separate records, joined by “and”; a condition that tells them apart may be missing. Identical values can stand only once. This list was built around the results that the source calls inconclusive (neither active nor inactive); the mix of calls is not that of the screen. Potencies beside an inconclusive call are fits to weak or partial responses and may not hold up. Activity calls are given as the source filed them. Calls follow the shape of the dose curve; as a rule, active = well fitted curve in the direction sought with a large enough effect in the repeat runs; inconclusive = weak or mixed curves; inactive = no such curve, though single readings can be large; an effect the other way counts as inactive or inconclusive. Also: nearly all actives have a fitted effect of over 50% in size. Potency is read from the fitted curve at half-maximal effect."}
{"smiles": "CCn1c2ccccc2c2cc([N+](=O)[O-])ccc21", "values": [{"measurement": "Potency", "setting": "[1]", "result": "inactive"}, {"measurement": "Potency", "setting": "[2]", "result": "active: 1.12 µM"}, {"measurement": "Potency", "setting": "[3]", "result": "inconclusive: 24.5 µM [inhibitor, partial curve]"}]}
{"smiles": "CC(=O)CC(C)C", "values": [{"measurement": "Potency", "setting": "[1]", "result": "inactive"}, {"measurement": "Potency", "setting": "[2]", "result": "inconclusive: 71 µM [inhibitor, partial curve, poor fit]"}, {"measurement": "Potency", "setting": "[4]", "result": "inactive"}]}
{"smiles": "CC(C)=CCCC(C)CCO", "note": "(stereo unspecified)", "values": [{"measurement": "Potency", "setting": "[1]", "result": "inconclusive: 39.9 µM [inhibitor, partial curve]"}, {"measurement": "Potency", "setting": "[2]", "result": "inconclusive: 82.6 µM [inhibitor, single point] and inconclusive: 35.6 µM [inhibitor, partial curve]"}]}
{"smiles": "CCCCCCCCN(C)CCCCCCCC", "values": [{"measurement": "Potency", "setting": "[1]", "result": "inconclusive: 80.6 µM [inhibitor, single point]"}]}
{"smiles": "NS(=O)(=O)c1cc2c(cc1Cl)NC(CC1CCCC1)NS2(=O)=O", "note": "(stereo unspecified)", "values": [{"measurement": "Potency", "setting": "[1]", "result": "inactive"}]}
{"smiles": "NS(=O)(=O)c1ccc(N2CCCCS2(=O)=O)cc1", "values": [{"measurement": "Potency", "setting": "[1]", "result": "inactive"}, {"measurement": "Potency", "setting": "[2]", "result": "inactive"}]}
{"smiles": "CC(=O)OCC(=O)[C@@]1(O)[C@H](C)C[C@H]2[C@@H]3CCC4=CC(=O)C=C[C@]4(C)[C@@]3(F)[C@@H](O)C[C@@]21C", "values": [{"measurement": "Potency", "setting": "[1]", "result": "inconclusive: 15.5 µM [inhibitor]"}, {"measurement": "Potency", "setting": "[2]", "result": "inactive"}]}
{"smiles": "OCCC(F)(F)C(F)(F)C(F)(F)C(F)(F)C(F)(F)C(F)(F)C(F)(F)C(F)(F)F", "values": [{"measurement": "Potency", "setting": "[1]", "result": "inactive"}]}
{"smiles": "OCCCCCCO", "values": [{"measurement": "Potency", "setting": "[1]", "result": "active: 40.4 µM"}, {"measurement": "Potency", "setting": "[4]", "result": "inconclusive: 80.6 µM [inhibitor, partial curve, poor fit]"}]}
{"smiles": "O=C(O)c1ccc(C(=O)O)cc1", "values": [{"measurement": "Potency", "setting": "[1]", "result": "inconclusive: 70.5 µM [inhibitor, partial curve, poor fit]"}, {"measurement": "Potency", "setting": "[2]", "result": "inconclusive: 70.5 µM [inhibitor] and inconclusive: 79.6 µM [inhibitor, partial curve, poor fit]"}]}
{"smiles": "CCc1ccccc1", "values": [{"measurement": "Potency", "setting": "[1]", "result": "inactive"}, {"measurement": "Potency", "setting": "[2]", "result": "inconclusive: 63.8 µM [inhibitor]"}]}
{"smiles": "CO[Si](CCCNc1ccccc1)(OC)OC", "values": [{"measurement": "Potency", "setting": "[1]", "result": "inconclusive: 56.4 µM [inhibitor, partial curve]"}, {"measurement": "Potency", "setting": "[2]", "result": "inactive"}, {"measurement": "Potency", "setting": "[4]", "result": "active: 25.2 µM"}]}
{"smiles": "CCOC(=O)c1ncn2c1CN(C)C(=O)c1cc(F)ccc1-2", "values": [{"measurement": "Potency", "setting": "[1]", "result": "inconclusive: 17.4 µM [inhibitor, partial curve]"}, {"measurement": "Potency", "setting": "[3]", "result": "inactive"}]}
{"smiles": "O=C(O)CCCCCCCCCCC(=O)O", "values": [{"measurement": "Potency", "setting": "[1]", "result": "inconclusive: 71.6 µM [inhibitor, partial curve] and inconclusive: 56.4 µM [inhibitor, partial curve]"}, {"measurement": "Potency", "setting": "[2]", "result": "inconclusive: 63.8 µM [inhibitor, partial curve] and inactive"}]}
{"smiles": "C=CCCC(=O)/C=C/C1C(C)=CCCC1(C)C", "note": "(stereo unspecified)", "values": [{"measurement": "Potency", "setting": "[1]", "result": "inconclusive: 56.4 µM [inhibitor, partial curve]"}, {"measurement": "Potency", "setting": "[3]", "result": "inconclusive: 19.5 µM [inhibitor, single point]"}]}
{"smiles": "CN(CC1(C)CCCO1)S(=O)(=O)c1ccc(Cl)c(S(N)(=O)=O)c1", "note": "(stereo unspecified)", "values": [{"measurement": "Potency", "setting": "[1]", "result": "inactive"}, {"measurement": "Potency", "setting": "[4]", "result": "inconclusive: 15.5 µM [inhibitor, partial curve, poor fit]"}]}
{"smiles": "CCOC(=O)CC(C(C)=O)C(C)=O", "values": [{"measurement": "Potency", "setting": "[1]", "result": "inactive"}, {"measurement": "Potency", "setting": "[2]", "result": "inactive"}]}
{"smiles": "CC(C)CCCCCCOC(=O)C1CCCCC1C(=O)OCCCCCCC(C)C", "note": "(stereo unspecified)", "values": [{"measurement": "Potency", "setting": "[1]", "result": "inconclusive: 28.3 µM [inhibitor, single point]"}, {"measurement": "Potency", "setting": "[4]", "result": "inconclusive: 15.9 µM [inhibitor, full curve]"}]}
{"smiles": "CCCCCCCCOc1ccc(C(=O)c2ccccc2)c(O)c1", "values": [{"measurement": "Potency", "setting": "[1]", "result": "inconclusive: 90.2 µM [inhibitor, single point] and active: 12.6 µM and inconclusive: 19.5 µM [inhibitor, partial curve]"}]}
{"smiles": "O=C(O)CNc1ccccc1", "values": [{"measurement": "Potency", "setting": "[1]", "result": "inconclusive: 71 µM [inhibitor, partial curve]"}, {"measurement": "Potency", "setting": "[4]", "result": "inactive"}]}
{"smiles": "O=P(O)(O)C(O)(Cc1cccnc1)P(=O)(O)O", "values": [{"measurement": "Potency", "setting": "[1]", "result": "inactive"}, {"measurement": "Potency", "setting": "[2]", "result": "inactive"}]}
{"smiles": "CCCCCCCCCCCC(=O)N(CC)CC", "values": [{"measurement": "Potency", "setting": "[1]", "result": "active: 50.2 µM"}]}
{"smiles": "Cc1c(C)c2c(c(C)c1OC(=O)CCC(=O)OCCO)CC[C@@](C)(CCC[C@H](C)CCC[C@H](C)CCCC(C)C)O2", "values": [{"measurement": "Potency", "setting": "[1]", "result": "inconclusive: 13.8 µM [inhibitor, full curve, poor fit]"}, {"measurement": "Potency", "setting": "[2]", "result": "active: 27.5 µM"}]}
{"smiles": "C=CCc1ccc(OC)c(OC)c1", "values": [{"measurement": "Potency", "setting": "[1]", "result": "inconclusive: 64 µM [inhibitor, partial curve, poor fit] and inconclusive: 39.9 µM [inhibitor, partial curve]"}]}
{"smiles": "CN1Cc2cc(C(=O)N3CCC(C4CCNCC4)CC3)ccc2NC(CC(=O)O)C1=O", "note": "(stereo unspecified)", "values": [{"measurement": "Potency", "setting": "[1]", "result": "inactive"}]}
